These are yes or no findings as the source states them, for the method shown.
Target: Irisin (UniProt Q8NAU1)
Assay: pull-down; His-tagged Irisin or ABD-Irisin (1 mL, 100 ng/mL in PBST) immobilised on 20 uL Ni-NTA magnetic beads, 4 °C, 2 h; beads then incubated with HSA (100 ng/mL) for 6 h; eluted in SDS-PAGE loading buffer; HSA detected by Western blot; both purified

Protein sequences, listed by entry. Tags and fused reporters are not part of them. Lines headed by an entry give the natural chain unless they say otherwise; changes in a name come on top. Residues count along the entry.
UniProt Q8NAU1: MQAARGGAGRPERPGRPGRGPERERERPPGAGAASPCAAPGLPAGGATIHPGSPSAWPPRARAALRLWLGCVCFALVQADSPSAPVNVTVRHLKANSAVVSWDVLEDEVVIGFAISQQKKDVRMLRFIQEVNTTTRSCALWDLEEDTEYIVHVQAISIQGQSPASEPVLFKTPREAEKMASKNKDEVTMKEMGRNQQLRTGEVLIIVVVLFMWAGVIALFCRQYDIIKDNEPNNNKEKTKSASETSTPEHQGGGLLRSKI
UniProt P02768, residues 25-609: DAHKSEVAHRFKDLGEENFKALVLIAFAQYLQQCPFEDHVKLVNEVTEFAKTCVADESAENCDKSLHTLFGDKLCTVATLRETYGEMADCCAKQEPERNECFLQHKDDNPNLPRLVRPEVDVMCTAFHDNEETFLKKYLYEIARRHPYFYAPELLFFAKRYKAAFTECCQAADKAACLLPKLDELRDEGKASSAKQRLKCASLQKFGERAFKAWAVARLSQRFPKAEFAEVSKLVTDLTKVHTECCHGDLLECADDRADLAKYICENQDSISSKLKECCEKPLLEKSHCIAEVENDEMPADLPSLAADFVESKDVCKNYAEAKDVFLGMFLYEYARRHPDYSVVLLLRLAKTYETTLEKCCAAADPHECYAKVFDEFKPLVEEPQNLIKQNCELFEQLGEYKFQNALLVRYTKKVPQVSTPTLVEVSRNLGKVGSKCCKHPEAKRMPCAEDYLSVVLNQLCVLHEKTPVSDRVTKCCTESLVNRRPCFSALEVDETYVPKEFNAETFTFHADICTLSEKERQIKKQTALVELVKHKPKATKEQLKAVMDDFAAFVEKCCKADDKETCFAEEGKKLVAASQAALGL

binding: no binding (tested: 100 ng/mL)
Substance: human serum albumin (from UniProt P02768 25-609)
